The subject of one series is SARS-COV-2. The class given is cell-based.

`CC(C)(CO)[C@@H](O)C(=O)NCCC(=O)NCCSSCCNC(=O)CCNC(=O)[C@H](O)C(C)(C)CO` [pantethine, (2R,2′ R)—N,N′-(3,12-Dioxo-7,8-dithia-4,11-diazatetradecane-1,14-diyl)bis(2,4-dihydroxy-3,3-dimethylbutanamide)]: the “toxic effect on Vero cells (viability)” value in the series with Vero E6 cells is on record as “no significant toxic effect”. The “relative expression of N and NSP6 genes in the supernatants of infected cells” value in the series with SARS-COV-2 is “reduce significantly”.

The record behind these values is patent publication US20240173273A1 (priority 2021, published 2024).
